This is a noisy data set.
B1: human tRNA-Pro; a variant is named by its letters at N, in order (parent)
chain: GGCTCGTTGGTCTAGNGGTATGATTCTCGCTTAGGGTGCGAGAGGTCCCGGGTTCNNATCCCGGACGAGCCC

Key:
[1] = variants of: B1; assay: tRNA Pol-III promoter activity, log2 (circRNA frequency / plasmid DNA frequency) (log2 ratio); higher = stronger promoter activity; conditions: HEK293T; construct: no Pol-II promoter ((-)CMV library)
[2] = variants of: B1; assay: tRNA 3' processing efficiency (processed reads / all reads, maximum-likelihood estimate) (fraction); higher = more efficient 3' processing; conditions: HEK293T; construct: no Pol-II promoter ((-)CMV library)
[3] = variants of: B1; assay: tRNA 5' processing efficiency (processed reads / all reads, maximum-likelihood estimate) (fraction); higher = more efficient 5' processing; conditions: HEK293T; construct: CMV Pol-II promoter ((+)CMV library, decapped)

Variant	tRNA Pol-III promoter activity (log2) [1]	tRNA 3' processing efficiency [2]	tRNA 5' processing efficiency [3]
CAA A58G	0.253	0.25	
TAG T8C A20C	4.74	0.14	
GAA G15A T53A	1.19	0.2	
TAA G15T G18C T54A	6.03	0.25	
GAA T8C A14C A58G	5.07	0.22	
TAA T8C T54A	3.53	0.33	
GAA T53A	2.7	0.39	0.22
GAA G17A T59G	-0.0718	0.25	
TCA A14G	4.36	0.44	
GAA T8C G9A G15A C55T	4.71	0.5	
GCA G9A	2.03	0.71	0.33
GGA A58T	-0.388	0.66	
CGA G34A	5.75	0.64	
CAA T53C	1.79	0.38	
TAA T8C G17A G18A T19A T53G A58T	3.74	0.71	
TCA A14T A58C	4.26	0.2	
TAT G17C A58T	4.03	0.4	
GCG T8C	4.15	0.29	
GTA A14T T19G	2.76	0.5	
TAA A58G T59G	3.43	0.21	
GAA A14C G15C	1.47	0.53	
GAC G15A	1.26	0.38	0.18
GAA T19A T53C A58T	2.16	0.57	

Variant	tRNA Pol-III promoter activity (log2) [1]	tRNA 3' processing efficiency [2]	tRNA 5' processing efficiency [3]
GAG G15C A20G	4.68	0.73	
AAA T19C T53C	4.67	0.4	
GAA T8C A58T T59C	4.07	0.2	
GAA A14G T19C A58T	3.94	0.5	
GAA A14T T19C A58C	5.36	0.2	
GGA T19A T54A C55T	5.16	0.43	
GAA T8A A58G T59A	3.25	0.4	
TAT A14T G17A T19A C55A	3.19	0.33	
CAC G9T	2.28	0.33	
GCA A14C T59C	5.1	0.25	
CAA G15C T19G	5.34	0.04	
GAG T53G	-0.377	0.58	0.25
GAT A14T G15C	3.03	0.2	
GAG A14C G15T G18C	6.51	0.5	
TAA T53A A58C	4.04	0.71	
GAA T8G T54C C55T	5.26	0.2	
GAG G9T A14T	5.03	0.25	
CAA G18T T19G T53A	5.25	0.2	
TGA T59G	3.15	0.43	0.25
CAA T19G	1.43	0.5	
GAA T19C T53G	0.0703	0.25	
GAA G15T A58T	-0.338	0.36	0.25
GAA A33G	8.1	0.32	

Variant	tRNA Pol-III promoter activity (log2) [1]	tRNA 3' processing efficiency [2]	tRNA 5' processing efficiency [3]
AAA G9A T59G	4.93	0.17	
GAA A14G G18C A58C	4.16	0.43	
TAA A14T G15A T53G	4.94	0.33	
ATA T19G A58G	5.94	0.13	
GAA G9T A14C A58T	4.39	0.27	
ATA A20G	4.3	0.61	
GAT A14C G15T A58T	6.36	0.2	
GTT G15C T19A	6.11	0.11	
GAA T19A T54A T59C	4.93	0.5	
TAA	0.112	0.5	0.29
GAG G17A	-0.334	0.32	
GAC C55T	0.48	0.08	0.09
GAA A14T G18A A20T	2.39	0.13	
GCA A14T	1.94	0.33	0.2
GAA G18T	-3.12	0.55	0.33
GGT A14C	3.36	0.45	
TTA T53A	3.27	0.5	
TTG G15T T19G	6.44	0.41	
GAG T8G A14G	3.43	0.29	
GAA G9T G15T T54A C55T	5.26	0.4	
GAA T8A G17T G18A A58T	5.2	0.56	
GTT A14G A58G	8.12	0.76	
GAA T8G A14G G17A	4.36	0.67	

Variant	tRNA Pol-III promoter activity (log2) [1]	tRNA 3' processing efficiency [2]	tRNA 5' processing efficiency [3]
GTG	3.09	0.21	
TAA A14C T53G T59A	6.25	0.4	
GAA G9A T59C	0.889	0.22	
TAA G15A A58G	2.19	0.5	
GAA T8A T59C	0.738	0.38	
GTA T59A	2.43	0.33	
ATA G15A A58C	5.25	0.4	
AAC A58G	4.93	0.06	
ATA T19C	4.55	0.26	
GAA T8A G15T A20T A58T T59G	7.94	0.06	
GCT T19C	3.41	0.11	
GAC G17T	-0.0796	0.3	0.33
GTA G15A T53A	3.77	0.38	
GCA T8C G9A	6.06	0.38	
GTG T59G	4.34	0.25	
GTA A14T A58T	3.51	0.25	
GAT G9T	1.44	0.17	0.2
GTA C55G A58T	1.83	0.4	
TAA G9A A20G A58T	4.93	0.25	
GAA G18A A58G	-0.585	0.18	0.25
GCA A14C A20T	4.41	0.42	
GAC G15T G18A A20C	5.51	0.33	
TAA T54A	2.33	0.33	0.25

Variant	tRNA Pol-III promoter activity (log2) [1]	tRNA 3' processing efficiency [2]	tRNA 5' processing efficiency [3]
GAA A14C G15C T53A	4.84	0.14	
TGA T59A	3.56	0.2	
CAA A14T A20T T59A	5.53	0.17	
GAA G9A A20G T59A	2.25	0.2	
GAA G15C G17C T53A	2.27	0.5	0.33
AAG G15A	3.65	0.22	
GAA T8C G17C T59G	4.26	0.57	
GGA A14T T53G	3.77	0.2	
AAA A20T A58G T59G	5.36	0.4	
GCA G9T	-0.409	0.25	
GAA T19G A20T T59G	3.36	0.25	
GAA G18T T59C	1.1	0.62	
GTA G15T A20T	1.93	0.25	
GTA G17A A58T	2.17	0.26	
GGA T8A G17A G18T T53G T54A A58T	4.77	0.4	
GCA A14C G18T T59G	5.03	0.6	
CTA T19A	3.12	0.25	
GAA A14T G17T T59C	4.44	0.3	
GAG	2.22	0.35	0.15

Rewritten comma-delimited: part of the list above
Variant,tRNA Pol-III promoter activity (log2) [1],tRNA 3' processing efficiency [2],tRNA 5' processing efficiency [3]
TGA T59G,3.15,0.43,0.25
CAA T19G,1.43,0.5,
GAA T19C T53G,0.0703,0.25,
GAA G15T A58T,-0.338,0.36,0.25
GAA A33G,8.1,0.32,
AAA G9A T59G,4.93,0.17,
GAA A14G G18C A58C,4.16,0.43,
TAA A14T G15A T53G,4.94,0.33,
ATA T19G A58G,5.94,0.13,
GAA G9T A14C A58T,4.39,0.27,
ATA A20G,4.3,0.61,
GAT A14C G15T A58T,6.36,0.2,
GTT G15C T19A,6.11,0.11,
GAA T19A T54A T59C,4.93,0.5,
TAA,0.112,0.5,0.29
GAG G17A,-0.334,0.32,
GAC C55T,0.48,0.08,0.09
GAA A14T G18A A20T,2.39,0.13,
GCA A14T,1.94,0.33,0.2
GAA G18T,-3.12,0.55,0.33
GGT A14C,3.36,0.45,
